From publication PMC10685607

Sequences of proteins named here, by UniProt entry; tags and fusion partners are left off.
UniProt Q92963: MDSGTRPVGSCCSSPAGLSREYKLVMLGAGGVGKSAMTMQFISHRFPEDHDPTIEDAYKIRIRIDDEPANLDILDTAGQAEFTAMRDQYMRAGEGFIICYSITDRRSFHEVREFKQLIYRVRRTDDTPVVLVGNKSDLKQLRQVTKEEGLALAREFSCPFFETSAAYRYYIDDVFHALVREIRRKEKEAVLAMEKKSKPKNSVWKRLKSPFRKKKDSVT
UniProt Q9UQE7: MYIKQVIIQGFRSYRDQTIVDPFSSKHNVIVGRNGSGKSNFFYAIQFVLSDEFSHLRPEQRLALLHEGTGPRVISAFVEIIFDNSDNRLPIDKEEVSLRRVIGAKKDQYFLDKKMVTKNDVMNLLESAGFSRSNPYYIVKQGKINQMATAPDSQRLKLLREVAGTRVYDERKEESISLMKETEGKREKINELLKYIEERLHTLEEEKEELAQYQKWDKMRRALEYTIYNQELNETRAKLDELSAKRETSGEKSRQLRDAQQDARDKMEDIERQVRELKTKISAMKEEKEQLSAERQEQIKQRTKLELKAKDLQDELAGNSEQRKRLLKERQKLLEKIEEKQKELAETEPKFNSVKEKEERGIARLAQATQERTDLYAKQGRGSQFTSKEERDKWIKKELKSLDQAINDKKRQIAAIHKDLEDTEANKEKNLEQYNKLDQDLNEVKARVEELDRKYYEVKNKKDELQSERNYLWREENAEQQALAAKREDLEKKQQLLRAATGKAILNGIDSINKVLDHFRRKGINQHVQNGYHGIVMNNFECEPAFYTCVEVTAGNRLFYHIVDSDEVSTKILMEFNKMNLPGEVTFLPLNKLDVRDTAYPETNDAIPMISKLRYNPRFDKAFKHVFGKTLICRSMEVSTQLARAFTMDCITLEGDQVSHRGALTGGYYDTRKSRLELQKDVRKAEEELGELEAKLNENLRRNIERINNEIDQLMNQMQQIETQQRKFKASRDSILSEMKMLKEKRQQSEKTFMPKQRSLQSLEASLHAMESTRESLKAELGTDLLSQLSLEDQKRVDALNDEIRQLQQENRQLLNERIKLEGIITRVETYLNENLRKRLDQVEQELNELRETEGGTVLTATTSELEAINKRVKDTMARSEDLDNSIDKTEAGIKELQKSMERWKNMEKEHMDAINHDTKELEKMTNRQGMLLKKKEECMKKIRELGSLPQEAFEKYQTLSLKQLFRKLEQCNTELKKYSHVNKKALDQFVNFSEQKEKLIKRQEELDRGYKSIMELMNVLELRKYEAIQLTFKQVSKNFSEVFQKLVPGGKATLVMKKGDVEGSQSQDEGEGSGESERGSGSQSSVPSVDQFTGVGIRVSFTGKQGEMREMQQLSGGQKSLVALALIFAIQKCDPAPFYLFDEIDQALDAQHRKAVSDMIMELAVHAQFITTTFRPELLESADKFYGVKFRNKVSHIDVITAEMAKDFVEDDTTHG

B1: PDS5 cohesin associated factor A (PDS5A), endogenous (protein, UniProt Q29RF7 1-1337)
chain: MDFTAQPKPATALCGVVSADGKIAYPPGVKEITDKITTDEMIKRLKMVVKTFMDMDQDSEDEKQQYLPLALHLASEFFLRNPNKDVRLLVACCLADIFRIYAPEAPYTSHDKLKDIFLFITRQLKGLEDTKSPQFNRYFYLLENLAWVKSYNICFELEDCNEIFIQLFRTLFSVINNSHNKKVQMHMLDLMSSIIMEGDGVTQELLDSILINLIPAHKNLNKQSFDLAKVLLKRTVQTIEACIANFFNQVLVLGRSSVSDLSEHVFDLIQELFAIDPHLLLSVMPQLEFKLKSNDGEERLAVVRLLAKLFGSKDSDLATQNRPLWQCFLGRFNDIHVPVRLESVKFASHCLMNHPDLAKDLTEYLKVRSHDPEEAIRHDVIVTIITAAKRDLALVNDQLLGFVRERTLDKRWRVRKEAMMGLAQLYKKYCLHGEAGKEAAEKVSWIKDKLLHIYYQNSIDDKLLVEKIFAQYLVPHNLETEERMKCLYYLYASLDPNAVKALNEMWKCQNMLRSHVRELLDLHKQPTSEANCSAMFGKLMTIAKNLPDPGKAQDFVKKFNQVLGDDEKLRSQLELLISPTCSCKQADICVREIARKLANPKQPTNPFLEMVKFLLERIAPVHIDSEAISALVKLMNKSIEGTADDEEEGVSPDTAIRSGLELLKVLSFTHPTSFHSAETYESLLQCLRMEDDKVAEAAIQIFRNTGHKIETDLPQIRSTLIPILHQKAKRGTPHQAKQAVHCIHAIFTNKEVQLAQIFEPLSRSLNADVPEQLITPLVSLGHISMLAPDQFASPMKSVVANFIVKDLLMNDRSTGEKNGKLWSPDEEVSPEVLAKVQAIKLLVRWLLGMKNNQSKSANSTLRLLSAMLVSEGDLTEQKRISKSDMSRLRLAAGSAIMKLAQEPCYHEIITPEQFQLCALVINDECYQVRQIFAQKLHKALVKLLLPLEYMAIFALCAKDPVKERRAHARQCLLKNISIRREYIKQNPMATEKLLSLLPEYVVPYMIHLLAHDPDFTRSQDVDQLRDIKECLWFMLEVLMTKNENNSHAFMKKMAENIKLTRDAQSPDESKTNEKLYTVCDVALCVINSKSALCNADSPKDPVLPMKFFTQPEKDFCNDKSYISEETRVLLLTGKPKPAGVLGAVNKPLSATGRKPYVRSTGTETGSNINVNSELNPSTGNRSREQSSEAAETGVSENEENPVRIISVTPVKNIDPVKNKEINSDQATQGNISSDRGKKRTVTAAGAENIQQKTDEKVDESGPPAPSKPRRGRRPKSESQGNATKNDDLNKPINKGRKRAAVGQESPGGLEAGNAKAPKLQDLAKKAAPAERQIDLQR
B2: PDS5 cohesin associated factor B (PDS5B), endogenous (protein, UniProt Q9NTI5 1-1447)
chain: MAHSKTRTNDGKITYPPGVKEISDKISKEEMVRRLKMVVKTFMDMDQDSEEEKELYLNLALHLASDFFLKHPDKDVRLLVACCLADIFRIYAPEAPYTSPDKLKDIFMFITRQLKGLEDTKSPQFNRYFYLLENIAWVKSYNICFELEDSNEIFTQLYRTLFSVINNGHNQKVHMHMVDLMSSIICEGDTVSQELLDTVLVNLVPAHKNLNKQAYDLAKALLKRTAQAIEPYITNFFNQVLMLGKTSISDLSEHVFDLILELYNIDSHLLLSVLPQLEFKLKSNDNEERLQVVKLLAKMFGAKDSELASQNKPLWQCYLGRFNDIHVPIRLECVKFASHCLMNHPDLAKDLTEYLKVRSHDPEEAIRHDVIVSIVTAAKKDILLVNDHLLNFVRERTLDKRWRVRKEAMMGLAQIYKKYALQSAAGKDAAKQIAWIKDKLLHIYYQNSIDDRLLVERIFAQYMVPHNLETTERMKCLYYLYATLDLNAVKALNEMWKCQNLLRHQVKDLLDLIKQPKTDASVKAIFSKVMVITRNLPDPGKAQDFMKKFTQVLEDDEKIRKQLEVLVSPTCSCKQAEGCVREITKKLGNPKQPTNPFLEMIKFLLERIAPVHIDTESISALIKQVNKSIDGTADDEDEGVPTDQAIRAGLELLKVLSFTHPISFHSAETFESLLACLKMDDEKVAEAALQIFKNTGSKIEEDFPHIRSALLPVLHHKSKKGPPRQAKYAIHCIHAIFSSKETQFAQIFEPLHKSLDPSNLEHLITPLVTIGHIALLAPDQFAAPLKSLVATFIVKDLLMNDRLPGKKTTKLWVPDEEVSPETMVKIQAIKMMVRWLLGMKNNHSKSGTSTLRLLTTILHSDGDLTEQGKISKPDMSRLRLAAGSAIVKLAQEPCYHEIITLEQYQLCALAINDECYQVRQVFAQKLHKGLSRLRLPLEYMAICALCAKDPVKERRAHARQCLVKNINVRREYLKQHAAVSEKLLSLLPEYVVPYTIHLLAHDPDYVKVQDIEQLKDVKECLWFVLEILMAKNENNSHAFIRKMVENIKQTKDAQGPDDAKMNEKLYTVCDVAMNIIMSKSTTYSLESPKDPVLPARFFTQPDKNFSNTKNYLPPEMKSFFTPGKPKTTNVLGAVNKPLSSAGKQSQTKSSRMETVSNASSSSNPSSPGRIKGRLDSSEMDHSENEDYTMSSPLPGKKSDKRDDSDLVRSELEKPRGRKKTPVTEQEEKLGMDDLTKLVQEQKPKGSQRSRKRGHTASESDEQQWPEEKRLKEDILENEDEQNSPPKKGKRGRPPKPLGGGTPKEEPTMKTSKKGSKKKSGPPAPEEEEEEERQSGNTEQKSKSKQHRVSRRAQQRAESPESSAIESTQSTPQKGRGRPSKTPSPSQPKKNVRVGRSKQAATKENDSSEEVDVFQGSSPVDDIPQEETEEEEVSTVNVRRRSAKRERR

Target: Myc-tagged RIT1 (Ras-like-without-CAAX-1), expressed in HCC cells (human) (UniProt Q92963)
Test: affinity purification with mass spectrometry; anti-Myc immunoprecipitate against control IgG from HCC-LY10, Huh7 and Hep3B cells transfected with Myc-tagged RIT1 plasmid; hits: abundance three times higher than in the IgG group, intersected between the cell lines

| Molecule | binding |
| --- | --- |
| structural maintenance of chromosome 3 (SMC3), endogenous (from UniProt Q9UQE7 1-1217) | binds |
| B1 | binds |
| B2 | binds |

Results are given in words; binding and its absence hold for the method and conditions named. In cells and extracts the contact can be indirect. A yes stands for co-enrichment or nearness to the bait. Other partners may have been found.
